Laboratory results as given in PMC7835349 (Communications Biology, 2021).
“And” between values parts separate entries of the source, which are not always exact repeats. Identical values can stand only once. This continues a long series; more values of the same kind are listed elsewhere.

Test system: telemetered dogs
Assay: Conscious dog telemetry (QRS amplitude and other cardiovascular parameters, tolerability)
Conditions: dog, 0.85 mg/kg
[1] = 0.85 mg/kg 0.5h infusion, 0.75 h
[2] = 0.85 mg/kg 0.5h infusion, 1.5 h
[3] = 0.85 mg/kg 0.5h infusion, -0.75 h
[4] = 0.85 mg/kg 0.5h infusion, -1.25 h

CN(CCO)CCC(CSc1ccccc1)Nc1ccc(S(=O)(=O)NC(=O)c2ccc(N3CCC(C(O)c4ccccc4-c4ccc(Cl)cc4)CC3)cc2)cc1S(=O)(=O)C(F)(F)F (stereo not drawn) [AZD4320]
Left ventricular -dP/dt (mmHg/s) [1]: 5279 mmHg/s | QRS amplitude (% baseline) [1]: 96 % baseline | Systolic blood pressure (mmHg) [1]: 165 mmHg and 177 mmHg | ECG PR interval (0.85 mg/kg 0.5h infusion, 1 h): 85 ms and 86 ms | ECG QRS duration (0.85 mg/kg 0.5h infusion, 1 h): 36 ms | Left ventricular -dP/dt (mmHg/s) (0.85 mg/kg 0.5h infusion, 1 h): 4595 mmHg/s | QRS amplitude (% baseline) (0.85 mg/kg 0.5h infusion, 1 h): 98 % baseline | Systolic blood pressure (mmHg) (0.85 mg/kg 0.5h infusion, 1 h): 150 mmHg and 149 mmHg | ECG PR interval [2]: 100 ms and 86 ms | ECG QRS duration [2]: 35 ms | Left ventricular -dP/dt (mmHg/s) [2]: 2368 mmHg/s and 4415 mmHg/s | QRS amplitude (% baseline) [2]: 89 % baseline and 91 % baseline | Systolic blood pressure (mmHg) [2]: 130 mmHg and 149 mmHg | ECG PR interval (0.85 mg/kg 0.5h infusion, 2 h): 97 ms and 79 ms | ECG QRS duration (0.85 mg/kg 0.5h infusion, 2 h): 33 ms | Left ventricular -dP/dt (mmHg/s) (0.85 mg/kg 0.5h infusion, 2 h): 2609 mmHg/s and 4822 mmHg/s | QRS amplitude (% baseline) (0.85 mg/kg 0.5h infusion, 2 h): 79 % baseline and 80 % baseline | Systolic blood pressure (mmHg) (0.85 mg/kg 0.5h infusion, 2 h): 142 mmHg | ECG PR interval (0.85 mg/kg 0.5h infusion, 3 h): 101 ms | ECG QRS duration (0.85 mg/kg 0.5h infusion, 3 h): 36 ms and 31 ms | QRS amplitude (% baseline) (0.85 mg/kg 0.5h infusion, 3 h): 51 % baseline and 56 % baseline | Systolic blood pressure (mmHg) (0.85 mg/kg 0.5h infusion, 3 h): 138 mmHg and 167 mmHg | ECG PR interval (0.85 mg/kg 0.5h infusion, 4 h): 82 ms and 77 ms | ECG QRS duration (0.85 mg/kg 0.5h infusion, 4 h): 35 ms and 32 ms | QRS amplitude (% baseline) (0.85 mg/kg 0.5h infusion, 4 h): 34 % baseline and 52 % baseline | Systolic blood pressure (mmHg) (0.85 mg/kg 0.5h infusion, 4 h): 106 mmHg and 150 mmHg | ECG PR interval (0.85 mg/kg 0.5h infusion, 6 h): 69 ms and 58 ms | ECG QRS duration (0.85 mg/kg 0.5h infusion, 6 h): 36 ms and 34 ms | Left ventricular -dP/dt (mmHg/s) (0.85 mg/kg 0.5h infusion, 6 h): 2044 mmHg/s and 3661 mmHg/s | QRS amplitude (% baseline) (0.85 mg/kg 0.5h infusion, 6 h): 41 % baseline and 65 % baseline | Systolic blood pressure (mmHg) (0.85 mg/kg 0.5h infusion, 6 h): 127 mmHg and 145 mmHg | ECG PR interval (0.85 mg/kg 0.5h infusion, 8 h): 71 ms and 58 ms | ECG QRS duration (0.85 mg/kg 0.5h infusion, 8 h): 36 ms | Left ventricular -dP/dt (mmHg/s) (0.85 mg/kg 0.5h infusion, 8 h): 2042 mmHg/s and 3872 mmHg/s | QRS amplitude (% baseline) (0.85 mg/kg 0.5h infusion, 8 h): 51 % baseline and 72 % baseline | Systolic blood pressure (mmHg) (0.85 mg/kg 0.5h infusion, 8 h): 134 mmHg and 148 mmHg | ECG PR interval (0.85 mg/kg 0.5h infusion, 12 h): 82 ms and 61 ms | ECG QRS duration (0.85 mg/kg 0.5h infusion, 12 h): 35 ms | Left ventricular -dP/dt (mmHg/s) (0.85 mg/kg 0.5h infusion, 12 h): 2433 mmHg/s and 4418 mmHg/s | QRS amplitude (% baseline) (0.85 mg/kg 0.5h infusion, 12 h): 69 % baseline and 94 % baseline | Systolic blood pressure (mmHg) (0.85 mg/kg 0.5h infusion, 12 h): 153 mmHg and 156 mmHg | ECG PR interval (0.85 mg/kg 0.5h infusion, 16 h): 77 ms | ECG QRS duration (0.85 mg/kg 0.5h infusion, 16 h): 34 ms | Left ventricular -dP/dt (mmHg/s) (0.85 mg/kg 0.5h infusion, 16 h): 2409 mmHg/s and 4071 mmHg/s | QRS amplitude (% baseline) (0.85 mg/kg 0.5h infusion, 16 h): 72 % baseline and 94 % baseline | Systolic blood pressure (mmHg) (0.85 mg/kg 0.5h infusion, 16 h): 161 mmHg | ECG PR interval (0.85 mg/kg 0.5h infusion, 22 h): 91 ms and 94 ms | Left ventricular -dP/dt (mmHg/s) (0.85 mg/kg 0.5h infusion, 22 h): 3086 mmHg/s and 4383 mmHg/s | QRS amplitude (% baseline) (0.85 mg/kg 0.5h infusion, 22 h): 72 % baseline and 88 % baseline | Systolic blood pressure (mmHg) (0.85 mg/kg 0.5h infusion, 22 h): 162 mmHg and 158 mmHg | ECG PR interval [3]: 91 ms and 84 ms | ECG QRS duration [3]: 36 ms | Left ventricular -dP/dt (mmHg/s) [3]: 4699 mmHg/s | QRS amplitude (% baseline) [3]: 96 % baseline | Systolic blood pressure (mmHg) [3]: 148 mmHg and 153 mmHg | ECG PR interval (0.85 mg/kg 0.5h infusion, -1 h): 103 ms and 85 ms | Left ventricular -dP/dt (mmHg/s) (0.85 mg/kg 0.5h infusion, -1 h): 4441 mmHg/s | QRS amplitude (% baseline) (0.85 mg/kg 0.5h infusion, -1 h): 94 % baseline | Systolic blood pressure (mmHg) (0.85 mg/kg 0.5h infusion, -1 h): 143 mmHg and 157 mmHg | ECG PR interval [4]: 85 ms | ECG QRS duration [4]: 36 ms | Left ventricular -dP/dt (mmHg/s) [4]: 4911 mmHg/s | QRS amplitude (% baseline) [4]: 97 % baseline | Systolic blood pressure (mmHg) [4]: 167 mmHg | ECG QRS duration (0.85 mg/kg 0.5h infusion, -[…]): 36 ms | Left ventricular -dP/dt (mmHg/s) (0.85 mg/kg 0.5h infusion, -[…]): 5734 mmHg/s | ECG QRS duration (0.85 mg/kg 0.5h infusion, […]): 33 ms | ECG PR interval (0.85 mg/kg 3h infusion, 0.5 h): 108 ms and 81 ms and 83 ms and 88 ms | ECG QRS duration (0.85 mg/kg 3h infusion, 0.5 h): 45 ms and 39 ms and 40 ms and 36 ms | Left ventricular -dP/dt (mmHg/s) (0.85 mg/kg 3h infusion, 0.5 h): 3953 mmHg/s and 3684 mmHg/s and 3219 mmHg/s and 5001 mmHg/s | QRS amplitude (% baseline) (0.85 mg/kg 3h infusion, 0.5 h): 99 % baseline and 100 % baseline and 101 % baseline | Systolic blood pressure (mmHg) (0.85 mg/kg 3h infusion, 0.5 h): 153 mmHg and 151 mmHg and 169 mmHg and 175 mmHg | ECG PR interval (0.85 mg/kg 3h infusion, 0.75 h): 112 ms and 86 ms and 76 ms and 106 ms | ECG QRS duration (0.85 mg/kg 3h infusion, 0.75 h): 46 ms and 39 ms and 41 ms and 36 ms | Left ventricular -dP/dt (mmHg/s) (0.85 mg/kg 3h infusion, 0.75 h): 3752 mmHg/s and 3727 mmHg/s and 3180 mmHg/s and 4454 mmHg/s | QRS amplitude (% baseline) (0.85 mg/kg 3h infusion, 0.75 h): 101 % baseline and 100 % baseline and 97 % baseline | Systolic blood pressure (mmHg) (0.85 mg/kg 3h infusion, 0.75 h): 162 mmHg and 154 mmHg and 161 mmHg and 165 mmHg | ECG PR interval (0.85 mg/kg 3h infusion, 1 h): 101 ms and 87 ms and 81 ms and 84 ms | ECG QRS duration (0.85 mg/kg 3h infusion, 1 h): 45 ms and 39 ms and 41 ms and 36 ms | Left ventricular -dP/dt (mmHg/s) (0.85 mg/kg 3h infusion, 1 h): 4308 mmHg/s and 3741 mmHg/s and 3090 mmHg/s and 4711 mmHg/s | QRS amplitude (% baseline) (0.85 mg/kg 3h infusion, 1 h): 101 % baseline and 100 % baseline and 96 % baseline and 99 % baseline | Systolic blood pressure (mmHg) (0.85 mg/kg 3h infusion, 1 h): 166 mmHg and 151 mmHg and 163 mmHg and 167 mmHg | ECG PR interval (0.85 mg/kg 3h infusion, 1.5 h): 113 ms and 82 ms and 102 ms and 98 ms | ECG QRS duration (0.85 mg/kg 3h infusion, 1.5 h): 45 ms and 39 ms and 40 ms and 36 ms | Left ventricular -dP/dt (mmHg/s) (0.85 mg/kg 3h infusion, 1.5 h): 3633 mmHg/s and 3504 mmHg/s and 2506 mmHg/s and 4720 mmHg/s | QRS amplitude (% baseline) (0.85 mg/kg 3h infusion, 1.5 h): 97 % baseline and 100 % baseline and 104 % baseline | Systolic blood pressure (mmHg) (0.85 mg/kg 3h infusion, 1.5 h): 157 mmHg and 147 mmHg and 135 mmHg and 166 mmHg | ECG PR interval (0.85 mg/kg 3h infusion, 2 h): 108 ms and 84 ms and 81 ms and 93 ms | ECG QRS duration (0.85 mg/kg 3h infusion, 2 h): 45 ms and 39 ms and 40 ms and 36 ms | Left ventricular -dP/dt (mmHg/s) (0.85 mg/kg 3h infusion, 2 h): 3810 mmHg/s and 3536 mmHg/s and 3010 mmHg/s and 5044 mmHg/s | QRS amplitude (% baseline) (0.85 mg/kg 3h infusion, 2 h): 96 % baseline and 100 % baseline and 94 % baseline and 101 % baseline | Systolic blood pressure (mmHg) (0.85 mg/kg 3h infusion, 2 h): 150 mmHg and 147 mmHg and 154 mmHg and 174 mmHg | ECG PR interval (0.85 mg/kg 3h infusion, 3 h): 111 ms and 83 ms and 90 ms and 82 ms | ECG QRS duration (0.85 mg/kg 3h infusion, 3 h): 45 ms and 39 ms and 34 ms | Left ventricular -dP/dt (mmHg/s) (0.85 mg/kg 3h infusion, 3 h): 3434 mmHg/s and 3501 mmHg/s and 3112 mmHg/s and 5003 mmHg/s | QRS amplitude (% baseline) (0.85 mg/kg 3h infusion, 3 h): 90 % baseline and 72 % baseline and 85 % baseline | Systolic blood pressure (mmHg) (0.85 mg/kg 3h infusion, 3 h): 157 mmHg and 146 mmHg and 158 mmHg and 168 mmHg | ECG PR interval (0.85 mg/kg 3h infusion, 4 h): 101 ms and 88 ms and 89 ms | ECG QRS duration (0.85 mg/kg 3h infusion, 4 h): 44 ms and 36 ms and 37 ms and 34 ms | Left ventricular -dP/dt (mmHg/s) (0.85 mg/kg 3h infusion, 4 h): 3780 mmHg/s and 2987 mmHg/s and 2879 mmHg/s and 4676 mmHg/s | QRS amplitude (% baseline) (0.85 mg/kg 3h infusion, 4 h): 85 % baseline and 69 % baseline and 64 % baseline and 74 % baseline | Systolic blood pressure (mmHg) (0.85 mg/kg 3h infusion, 4 h): 155 mmHg and 123 mmHg and 142 mmHg and 159 mmHg | ECG PR interval (0.85 mg/kg 3h infusion, 6 h): 86 ms and 82 ms and 75 ms and 83 ms | ECG QRS duration (0.85 mg/kg 3h infusion, 6 h): 42 ms and 35 ms and 38 ms and 34 ms | QRS amplitude (% baseline) (0.85 mg/kg 3h infusion, 6 h): 64 % baseline and 62 % baseline and 85 % baseline and 72 % baseline | Systolic blood pressure (mmHg) (0.85 mg/kg 3h infusion, 6 h): 116 mmHg and 124 mmHg and 145 mmHg and 147 mmHg | ECG PR interval (0.85 mg/kg 3h infusion, 8 h): 86 ms and 95 ms and 74 ms and 70 ms | ECG QRS duration (0.85 mg/kg 3h infusion, 8 h): 43 ms and 34 ms and 40 ms and 35 ms
